Assay results as given in publication PMC12214830, “The human RIF1-Long isoform interacts with BRCA1 to promote recombinational fork repair under DNA replication stress” (Nature Communications, 2025).
Results are given in words; binding and its absence hold for the method and conditions named.

Biological target: T1, Flu-RIF1pS2265 (fluorescein-labelled RIF1-L phosphoS2265PKF peptide) (human)
T1 sequence (peptide, fluorescein on the N-terminus; phosphoserine at S2265 (pS)): GYGFLSPGSRSPKFKSSK
Assay: fluorescence polarisation; 200 nM fluorescein-labelled peptide with increasing His6-SUMO-BRCT2 protein; room temperature; 25 mM HEPES pH 7.5, 200 mM NaCl, 1 mM EDTA, 0.25 mM TCEP, 0.02% Tween-20; one site-specific binding fit; Lambda phosphatase with 1 mM MnCl2 to remove the phosphate; both …

Substance	binding
His6-SUMO tandem BRCT domains of 53BP1 (domain or fragment)	no binding
His6-SUMO tandem BRCT domains of MDC1 (domain or fragment)	no binding
His6-SUMO tandem BRCT domains of TOPBP1 (domain or fragment)	no binding
